Results are given in words; binding and its absence hold for the method and conditions named. Binding seen in cells or lysates may run through a third protein. Some results given as binding are weak or reduced against the parent protein; the word gives no strength. For part of these data: Sequences can lack the tags named with a protein.
How the values were obtained:
[1] = molecular target: T1, Flag-epitope tagged DR3 (human) (UniProt Q93038); assay: co-immunoprecipitation with anti-Flag from transfected 293 cells, anti-myc immunoblot
T1 sequence: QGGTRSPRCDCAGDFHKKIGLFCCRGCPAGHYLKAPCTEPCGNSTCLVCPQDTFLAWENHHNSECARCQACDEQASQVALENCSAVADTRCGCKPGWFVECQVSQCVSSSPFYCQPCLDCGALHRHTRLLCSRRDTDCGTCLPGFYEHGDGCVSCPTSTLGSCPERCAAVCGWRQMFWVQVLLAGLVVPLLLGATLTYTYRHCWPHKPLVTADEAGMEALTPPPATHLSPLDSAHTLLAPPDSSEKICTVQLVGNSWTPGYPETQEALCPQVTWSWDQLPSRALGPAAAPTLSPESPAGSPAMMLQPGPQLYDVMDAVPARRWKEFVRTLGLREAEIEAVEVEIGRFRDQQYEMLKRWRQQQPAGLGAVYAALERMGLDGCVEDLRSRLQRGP

Amino acid sequences for entries named in this document (tags omitted). A change or cut given only in a name is not applied to a line headed by its entry. Chains listed by the source or under a name are the forms on record and can include a tag or linker. Residues count along the entry.
UniProt P19438: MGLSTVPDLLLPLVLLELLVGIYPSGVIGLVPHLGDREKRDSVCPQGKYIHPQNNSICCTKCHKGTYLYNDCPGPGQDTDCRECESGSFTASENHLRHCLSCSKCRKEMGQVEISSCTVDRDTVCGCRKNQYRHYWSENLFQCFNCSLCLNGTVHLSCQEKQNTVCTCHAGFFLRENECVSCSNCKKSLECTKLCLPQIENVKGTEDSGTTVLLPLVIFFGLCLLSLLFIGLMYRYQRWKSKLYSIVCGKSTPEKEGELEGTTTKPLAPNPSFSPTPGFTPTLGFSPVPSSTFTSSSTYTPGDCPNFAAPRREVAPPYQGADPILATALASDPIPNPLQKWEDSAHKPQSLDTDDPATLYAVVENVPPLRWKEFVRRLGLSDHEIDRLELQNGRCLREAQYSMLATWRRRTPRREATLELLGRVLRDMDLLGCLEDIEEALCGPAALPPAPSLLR
Flag-epitope tagged TNFR-1: residues 30-455 of P19438
GST fusion of the cytoplasmic domain of TNFR-1: residues 233-455 of P19438

[2] = molecular target: Flag-epitope tagged TNFR-1 (UniProt P19438); assay: as above
[3] = molecular target: GST fusion of the cytoplasmic domain of TNFR-1 (UniProt P19438); assay: GST pull-down of in vitro translated 35S-labeled protein, SDS-PAGE and autoradiography

Measured: binding

B1: TRADD (protein, UniProt Q15628 1-312, looked up, not shown: small tags and cut ends)
chain: MAAGQNGHEEWVGSAYLFVESSLDKVVLSDAYAHPQQKVAVYRALQAALAESGGSPDVLQMLKIHRSDPQLIVQLRFCGRQPCGRFLRAYREGALRAALQRSLAAALAQHSVPLQLELRAGAERLDALLADEERCLSCILAQQPDRLRDEELAELEDALRNLKCGSGARGGDGEVASAPLQPPVPSLSEVKPPPPPPPAQTFLFQGQPVVNRPLSLKDQQTFARSVGLKWRKVGRSLQRGCRALRDPALDSLAYEYEREGLYEQAFQLLRRFVQAEGRRATLQRLVEALEENELTSLAEDLLGLTDPNGGLA
binds: all assays above

— patent US20030170203A1
